Results from patent publication US20120202799A1, “Condensed Azepine Derivatives As Bromodomain Inhibitors” (priority 2009, published 2012).
Some of these results come from one statement about several compounds together.

Biological target: T1, Bromodomain 2, 3 and 4 (BRD2, BRD3 and BRD4)
T1 construct: fused on or other part: six-His tag at the N-terminus
Experiment: Fluorescence Anisotropy Binding Assay
Parameters: species or system Human
Details: result stated for one or more of BRD2, BRD3 and BRD4, target not specified per compound
Description: All data was normalized to the mean of 16 high and 16 low control wells on each plate. A four parameter curve fit of the following form was then applied:
y=a+((b−a)/(1+(10̂x/10̂c)̂d)
The His-tagged Bromodomain was extracted from E. coli cells using 0.1 mg/ml lysozyme and sonication. […] Further purification was completed by Superdex 200 prep grade size exclusion column. Purified protein was stored at −80 C in 20 mM HEPES pH 7.5 and 100 mM NaCl.

SMILES	pIC50 in one or more of the BRD2, BRD3 and BRD4 assays
Cc1nnc2n1-c1c(oc3ccccc13)C(c1ccccc1)=NC2NC(=O)OCc1ccccc1 (centres unmarked) [Example 18, phenylmethyl (1-methyl-6-phenyl-4H-[1]benzofuro[2,3-f][1,2,4]triazolo[4,3-a][1,4]diazepin-4-yl)carbamate]	≤ 5.0
Cc1nnc2n1-c1c(oc3ccccc13)C(c1ccc(Cl)cc1)=NC2NC(=O)OCc1ccccc1 (centres unmarked) [Example 20, phenylmethyl [6-(4-chlorophenyl)-1-methyl-4H-[1]-benzofuro[2,3-f][1,2,4]triazolo[4,3-a][1,4]diazepin-4-yl]carbamate]	≤ 5.0
